Results taken from patent publication US20150299178A1, “Thiazole Derivatives as Alpha 7 NACHR Modulators” (LUPIN LIMITED, priority 2012, published 2015).
Some of these results come from one statement about several compounds together. For at least one compound, name, drawing or mass did not settle the structure.

Chains of the proteins cited; added tags and fusions are not shown. Residues count along the entry.
UniProt P36544, 23-502: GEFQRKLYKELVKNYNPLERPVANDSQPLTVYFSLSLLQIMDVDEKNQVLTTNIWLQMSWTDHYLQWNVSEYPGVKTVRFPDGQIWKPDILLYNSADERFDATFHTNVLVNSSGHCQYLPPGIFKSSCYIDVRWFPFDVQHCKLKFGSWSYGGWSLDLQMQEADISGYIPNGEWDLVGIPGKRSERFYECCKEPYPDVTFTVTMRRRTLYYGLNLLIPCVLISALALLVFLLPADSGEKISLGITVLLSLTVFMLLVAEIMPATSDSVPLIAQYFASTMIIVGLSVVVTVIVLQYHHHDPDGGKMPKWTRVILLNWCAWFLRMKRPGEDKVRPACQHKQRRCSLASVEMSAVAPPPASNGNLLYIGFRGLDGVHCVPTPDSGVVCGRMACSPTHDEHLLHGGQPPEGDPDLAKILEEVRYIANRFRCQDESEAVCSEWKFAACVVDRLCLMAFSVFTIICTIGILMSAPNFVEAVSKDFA

Target: T1, α7 nAChR (Homo sapiens, UniProt P36544)
T1 construct: human IMR-32 cells with native expression of α7 nAChR; endogenous in cells; host or cells: human IMR-32 cells
Assay: cell-based real-time kinetic FLIPR Ca2+ assay, potentiation of agonist response (fold PAM activity)
Settings: 1 μM test compound, agonist PNU-282987, 10 μM, human IMR-32 cells with native expression of α7 nAChR, intracellular Ca2+

SMILES | Fold activation at 1 μM conc. (Group)
CN(CC1CC1)C(=O)c1nc(-c2ccc(Cl)cc2)c(-c2ccc(S(N)(=O)=O)cc2)s1 [Compound 30, 44-(4-chlorophenyl)-N-(cyclopropylmethyl)-N-methyl-5-(4-sulfamoylphenyl)thiazole-2-carboxamide] | B (the compounds with activity between 5.1 folds and 15 folds are grouped as B)
CCC(=O)N(c1nc(-c2ccc(Cl)cc2)c(-c2ccc(S(N)(=O)=O)cc2)s1)C1CC1 [Compound 41, N-(4-(4-chlorophenyl)-5-(4-sulfamoylphenyl)thiazol-2-yl)-N-cyclopropyl propionamide] | A (compounds with activity between 1 to 5 folds are grouped as A)
